These are yes or no findings as the source states them, for the method shown. Some binding calls cover weakened binding; strength is not graded here.
Legend:
[1] = target: aggregated tau in FFPE brain sections of an Alzheimer's disease patient (human) (UniProt P10636); assay: IHC on FFPE brain sections
[2] = target: aggregated tau in FFPE brain sections of a normal individual (minimal tau aggregation) (human) (UniProt P10636); assay: IHC on FFPE brain sections, semi quantitative score (mild, +)
[3] = target: aggregate tau fibrils purified from AD brain homogenates (human) (UniProt P10636); assay: ELISA on coated tau fibrils purified from AD brain
[4] = target: aggregated tau in FFPE brain sections of an Alzheimer's disease patient (human) (UniProt P10636); assay: IHC on FFPE brain sections, semi quantitative score (severe, +++)

Amino acid sequences for entries named in this document (tags omitted). A change or cut given only in a name is not applied to a line headed by its entry. Chains listed by the source or under a name are the forms on record and can include a tag or linker.
aggregated tau in FFPE brain sections of an Alzheimer's disease patient (P10636, form named): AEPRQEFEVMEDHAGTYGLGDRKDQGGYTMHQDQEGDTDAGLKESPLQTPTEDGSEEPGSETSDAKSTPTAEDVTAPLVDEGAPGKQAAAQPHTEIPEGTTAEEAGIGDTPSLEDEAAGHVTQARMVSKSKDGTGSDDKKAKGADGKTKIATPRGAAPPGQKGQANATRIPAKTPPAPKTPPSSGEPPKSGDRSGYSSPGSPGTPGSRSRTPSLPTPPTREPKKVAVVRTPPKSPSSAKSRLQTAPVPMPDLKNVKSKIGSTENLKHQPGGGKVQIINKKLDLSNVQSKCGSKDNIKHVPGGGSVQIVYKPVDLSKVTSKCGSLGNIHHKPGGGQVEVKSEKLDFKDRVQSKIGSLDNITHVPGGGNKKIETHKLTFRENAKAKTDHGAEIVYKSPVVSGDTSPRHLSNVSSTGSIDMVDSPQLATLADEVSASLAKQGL

binding [1]: binds
binding [2]: binds
binding [3]: binds
binding [4]: binds
B1: Exemplified anti-Tau antibody (having both HCs of SEQ ID NO.68 and both LCs of SEQ ID NO.67) (antibody, human IgG4 S228P, kappa, F234A L235A, V domains shown)
VH: EVQLVQSGAEVKKPGESLKISCKGSGYTFSNYWIEWVRQMPGKGLEWMGEILPGSDSIKYEKNFKGQVTISADKSISTAYLQWSSLKASDTAMYYCARRGNYVDDWGQGTLVTVSS
VL: EIVLTQSPGTLSLSPGERATLSCRSSQSLVHSNQNTYLHWYQQKPGQAPRLLIYKVDNRFSGIPDRFSGSGSGTDFTLTISRLEPEDFAVYYCSQSTLVPLTFGGGTKVEIKR

From patent publication US20190161539A1
